Reference: the supplement of paper PMC10849652
The list shows a part of the results.

By UniProt entry, the sequences of proteins in these tests, tags left out. Where a name states a change or a piece, a line headed by the entry shows the natural chain unless it says otherwise.
UniProt Q6ZVX7: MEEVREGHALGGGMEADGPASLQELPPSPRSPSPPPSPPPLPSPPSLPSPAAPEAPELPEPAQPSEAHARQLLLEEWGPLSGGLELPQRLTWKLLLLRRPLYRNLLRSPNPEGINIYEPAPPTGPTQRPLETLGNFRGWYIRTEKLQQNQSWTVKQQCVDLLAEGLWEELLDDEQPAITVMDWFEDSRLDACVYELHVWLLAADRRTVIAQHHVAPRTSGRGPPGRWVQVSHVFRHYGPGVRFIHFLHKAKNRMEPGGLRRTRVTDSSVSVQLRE
UniProt Q8N6N6: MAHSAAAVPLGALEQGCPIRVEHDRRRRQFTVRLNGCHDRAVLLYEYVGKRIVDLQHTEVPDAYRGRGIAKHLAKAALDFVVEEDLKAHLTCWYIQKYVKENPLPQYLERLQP
UniProt B2RBV5: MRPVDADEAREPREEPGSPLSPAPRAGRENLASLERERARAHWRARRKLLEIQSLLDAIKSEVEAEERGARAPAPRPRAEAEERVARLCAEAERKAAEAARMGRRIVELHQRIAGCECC
UniProt O95167, whole entry, looked up: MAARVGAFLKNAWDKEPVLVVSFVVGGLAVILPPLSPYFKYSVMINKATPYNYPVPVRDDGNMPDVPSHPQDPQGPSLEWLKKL
UniProt Q15788: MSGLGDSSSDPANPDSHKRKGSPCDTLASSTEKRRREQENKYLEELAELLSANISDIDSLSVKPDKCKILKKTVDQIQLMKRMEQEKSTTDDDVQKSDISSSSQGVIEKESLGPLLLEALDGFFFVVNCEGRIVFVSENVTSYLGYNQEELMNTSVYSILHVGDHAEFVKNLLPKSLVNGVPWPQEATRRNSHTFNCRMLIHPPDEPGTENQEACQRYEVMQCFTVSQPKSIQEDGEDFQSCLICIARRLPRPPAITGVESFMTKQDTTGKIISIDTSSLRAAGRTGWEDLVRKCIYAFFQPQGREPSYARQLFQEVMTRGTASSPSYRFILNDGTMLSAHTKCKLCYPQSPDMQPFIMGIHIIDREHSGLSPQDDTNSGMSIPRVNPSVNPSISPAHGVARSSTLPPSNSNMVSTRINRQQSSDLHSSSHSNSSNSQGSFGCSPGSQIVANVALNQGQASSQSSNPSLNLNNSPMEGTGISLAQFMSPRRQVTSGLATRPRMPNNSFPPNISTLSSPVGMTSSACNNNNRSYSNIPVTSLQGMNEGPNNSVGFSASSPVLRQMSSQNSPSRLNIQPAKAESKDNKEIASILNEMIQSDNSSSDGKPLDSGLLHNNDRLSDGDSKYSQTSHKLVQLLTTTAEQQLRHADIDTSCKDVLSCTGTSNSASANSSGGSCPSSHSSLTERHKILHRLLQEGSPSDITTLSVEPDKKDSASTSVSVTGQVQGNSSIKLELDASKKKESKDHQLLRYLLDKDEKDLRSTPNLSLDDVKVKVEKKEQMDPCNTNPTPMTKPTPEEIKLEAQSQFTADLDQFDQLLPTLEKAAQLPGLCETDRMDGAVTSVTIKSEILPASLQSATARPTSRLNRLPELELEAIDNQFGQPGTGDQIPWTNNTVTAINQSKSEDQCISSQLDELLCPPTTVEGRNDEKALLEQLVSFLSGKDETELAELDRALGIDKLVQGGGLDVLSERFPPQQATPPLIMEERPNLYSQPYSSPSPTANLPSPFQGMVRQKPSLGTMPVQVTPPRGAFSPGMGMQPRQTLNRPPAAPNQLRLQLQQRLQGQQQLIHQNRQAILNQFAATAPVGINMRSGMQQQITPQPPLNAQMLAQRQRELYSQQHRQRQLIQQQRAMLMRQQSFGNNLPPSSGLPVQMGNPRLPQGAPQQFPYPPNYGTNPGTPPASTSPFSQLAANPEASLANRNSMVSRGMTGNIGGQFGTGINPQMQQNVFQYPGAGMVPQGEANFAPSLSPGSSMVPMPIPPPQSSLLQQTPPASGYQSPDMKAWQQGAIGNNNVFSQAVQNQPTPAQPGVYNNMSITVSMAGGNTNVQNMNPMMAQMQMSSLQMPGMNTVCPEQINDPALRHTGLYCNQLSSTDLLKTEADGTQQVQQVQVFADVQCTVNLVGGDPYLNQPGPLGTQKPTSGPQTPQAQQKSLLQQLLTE
UniProt Q69YL0: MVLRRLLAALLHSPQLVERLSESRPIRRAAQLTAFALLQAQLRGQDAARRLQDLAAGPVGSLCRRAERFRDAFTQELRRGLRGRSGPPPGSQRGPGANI
UniProt Q9NZM1: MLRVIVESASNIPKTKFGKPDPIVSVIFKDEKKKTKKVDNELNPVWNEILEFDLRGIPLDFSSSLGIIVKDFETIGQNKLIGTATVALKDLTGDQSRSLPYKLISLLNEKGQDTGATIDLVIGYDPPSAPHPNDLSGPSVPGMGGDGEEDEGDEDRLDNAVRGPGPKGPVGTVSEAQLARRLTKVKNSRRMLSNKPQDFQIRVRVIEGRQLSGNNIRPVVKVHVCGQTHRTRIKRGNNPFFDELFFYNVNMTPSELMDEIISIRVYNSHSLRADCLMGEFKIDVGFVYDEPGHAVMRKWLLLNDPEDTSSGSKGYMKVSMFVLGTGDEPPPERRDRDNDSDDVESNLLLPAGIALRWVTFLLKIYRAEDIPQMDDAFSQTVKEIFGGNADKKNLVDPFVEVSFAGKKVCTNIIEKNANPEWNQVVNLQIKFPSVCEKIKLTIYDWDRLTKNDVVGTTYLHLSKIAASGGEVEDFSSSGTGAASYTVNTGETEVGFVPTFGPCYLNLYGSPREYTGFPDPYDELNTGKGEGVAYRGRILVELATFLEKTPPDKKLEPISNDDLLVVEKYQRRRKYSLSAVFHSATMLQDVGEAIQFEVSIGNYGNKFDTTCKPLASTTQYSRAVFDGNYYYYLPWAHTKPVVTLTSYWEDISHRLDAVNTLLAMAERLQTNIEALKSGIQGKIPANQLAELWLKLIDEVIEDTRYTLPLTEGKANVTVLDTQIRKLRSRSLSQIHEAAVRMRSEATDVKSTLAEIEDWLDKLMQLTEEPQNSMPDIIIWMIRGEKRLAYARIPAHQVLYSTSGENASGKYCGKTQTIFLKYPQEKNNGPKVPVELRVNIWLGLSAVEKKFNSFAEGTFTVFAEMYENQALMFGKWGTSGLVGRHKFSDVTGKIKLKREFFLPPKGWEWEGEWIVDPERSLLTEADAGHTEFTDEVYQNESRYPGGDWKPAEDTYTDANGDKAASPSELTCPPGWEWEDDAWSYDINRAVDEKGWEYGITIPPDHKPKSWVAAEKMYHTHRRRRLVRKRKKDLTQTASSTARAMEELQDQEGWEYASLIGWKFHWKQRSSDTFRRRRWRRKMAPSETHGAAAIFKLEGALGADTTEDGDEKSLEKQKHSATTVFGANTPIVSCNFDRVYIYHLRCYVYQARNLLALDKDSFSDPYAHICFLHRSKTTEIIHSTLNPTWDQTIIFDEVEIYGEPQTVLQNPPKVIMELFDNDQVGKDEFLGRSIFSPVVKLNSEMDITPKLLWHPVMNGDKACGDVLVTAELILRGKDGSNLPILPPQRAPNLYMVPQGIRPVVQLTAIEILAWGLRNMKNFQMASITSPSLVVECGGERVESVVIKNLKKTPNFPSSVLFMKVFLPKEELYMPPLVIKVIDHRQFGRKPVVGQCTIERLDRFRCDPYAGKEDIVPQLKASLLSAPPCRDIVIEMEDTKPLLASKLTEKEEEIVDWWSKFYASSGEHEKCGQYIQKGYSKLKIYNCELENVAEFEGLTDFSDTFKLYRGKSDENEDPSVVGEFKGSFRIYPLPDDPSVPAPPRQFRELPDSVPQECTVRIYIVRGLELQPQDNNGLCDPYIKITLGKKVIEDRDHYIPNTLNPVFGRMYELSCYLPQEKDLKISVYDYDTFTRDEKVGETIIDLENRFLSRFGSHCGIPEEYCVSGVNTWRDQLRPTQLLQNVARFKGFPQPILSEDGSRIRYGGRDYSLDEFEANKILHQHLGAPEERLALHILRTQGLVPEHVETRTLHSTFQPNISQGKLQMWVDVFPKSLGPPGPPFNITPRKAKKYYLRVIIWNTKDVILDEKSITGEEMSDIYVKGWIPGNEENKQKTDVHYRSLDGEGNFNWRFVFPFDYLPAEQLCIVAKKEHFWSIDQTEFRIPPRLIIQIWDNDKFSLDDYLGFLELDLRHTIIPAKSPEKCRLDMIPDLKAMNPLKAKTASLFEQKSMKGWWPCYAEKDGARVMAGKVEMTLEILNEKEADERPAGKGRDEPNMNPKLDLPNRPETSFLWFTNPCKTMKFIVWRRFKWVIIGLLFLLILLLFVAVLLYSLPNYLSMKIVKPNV
UniProt O43677, whole entry, looked up: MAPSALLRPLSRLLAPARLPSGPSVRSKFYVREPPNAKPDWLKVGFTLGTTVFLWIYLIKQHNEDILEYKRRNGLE
UniProt Q6IBW4: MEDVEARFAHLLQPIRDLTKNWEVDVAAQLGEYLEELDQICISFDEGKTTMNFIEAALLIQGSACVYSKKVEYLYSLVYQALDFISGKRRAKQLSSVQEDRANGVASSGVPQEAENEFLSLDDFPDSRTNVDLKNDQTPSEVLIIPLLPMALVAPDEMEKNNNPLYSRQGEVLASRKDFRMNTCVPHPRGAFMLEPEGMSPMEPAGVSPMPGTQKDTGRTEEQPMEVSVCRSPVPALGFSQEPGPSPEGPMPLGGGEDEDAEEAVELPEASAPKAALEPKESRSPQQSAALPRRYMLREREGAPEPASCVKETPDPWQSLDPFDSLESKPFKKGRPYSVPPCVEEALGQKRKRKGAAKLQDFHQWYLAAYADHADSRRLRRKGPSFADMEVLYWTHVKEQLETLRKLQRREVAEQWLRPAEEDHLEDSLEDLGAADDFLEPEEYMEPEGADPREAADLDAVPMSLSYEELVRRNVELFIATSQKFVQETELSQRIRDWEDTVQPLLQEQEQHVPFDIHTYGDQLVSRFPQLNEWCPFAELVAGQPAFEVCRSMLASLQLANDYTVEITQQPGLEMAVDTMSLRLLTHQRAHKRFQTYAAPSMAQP
UniProt Q13772: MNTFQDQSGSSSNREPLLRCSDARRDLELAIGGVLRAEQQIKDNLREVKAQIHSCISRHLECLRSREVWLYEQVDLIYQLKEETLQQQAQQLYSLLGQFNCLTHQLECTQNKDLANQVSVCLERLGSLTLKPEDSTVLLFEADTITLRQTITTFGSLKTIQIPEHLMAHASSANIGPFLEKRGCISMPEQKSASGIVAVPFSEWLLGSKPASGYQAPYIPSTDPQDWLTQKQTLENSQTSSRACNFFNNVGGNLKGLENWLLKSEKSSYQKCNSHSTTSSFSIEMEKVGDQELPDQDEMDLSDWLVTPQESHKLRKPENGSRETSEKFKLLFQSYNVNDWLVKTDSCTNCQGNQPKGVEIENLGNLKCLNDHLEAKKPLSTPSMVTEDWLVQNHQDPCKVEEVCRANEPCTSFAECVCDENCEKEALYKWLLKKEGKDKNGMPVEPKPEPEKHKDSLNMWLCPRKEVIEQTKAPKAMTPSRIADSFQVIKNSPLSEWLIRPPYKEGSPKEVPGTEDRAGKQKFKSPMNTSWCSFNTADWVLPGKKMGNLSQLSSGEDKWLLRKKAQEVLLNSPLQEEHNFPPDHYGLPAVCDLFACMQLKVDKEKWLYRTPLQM

How the values were obtained:
Assay in all cases: log2 fold change, soluble protein after heating vs DMSO (PISA); higher = thermal stabilisation; K562 cells, 10 uM, 30 min; active = over 0.2 and 3.5 SD of the protein, either way, in both replicates (recomputed)
[1] = compound: COC1=CC=C(C=C1)CN2C=CC3=C2C=C(C=C3)C(=O)NO
Procedure, shortened: (§1)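 K562 cells at 2×10^6 cells/mL were treated with 10 μM compound for 30 min. Aliquots were heated for 3 min across 48°C-58°C, pooled, and extracted in PBS with 0.5% NP-40 at 4°C; soluble protein was the supernatant after 21,000xg for 90 min. Soluble protein was quantified by TMTpro 16plex LC-MS/MS with channel sums equalised, and reported as log2 fold change in thermal stability against DMSO controls, with values from duplicates.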

idasanutlin = compound: COc1cc(C(=O)O)ccc1NC(=O)[C@@H]1N[C@@H](CC(C)(C)C)[C@](C#N)(c2ccc(Cl)cc2F)[C@H]1c1cccc(Cl)c1F [idasanutlin]
Procedure, shortened: as §1

alisertib = compound: COc1cc(Nc2ncc3c(n2)-c2ccc(Cl)cc2C(c2c(F)cccc2OC)=NC3)ccc1C(=O)O [alisertib]
Procedure, shortened: as §1

[2] = compound: COc1cccc2cc(-c3nc([C@H]4CC[C@H](C(=O)O)CC4)n4ncnc(N)c34)[nH]c12
Procedure, shortened: as §1

crizotinib = compound: C[C@@H](Oc1cc(-c2cnn(C3CCNCC3)c2)cnc1N)c1c(Cl)ccc(F)c1Cl [crizotinib]
Procedure, shortened: as §1

[3] = compound: C[C@@H]1COCCN1C2=NC(=NC(=C2)C3(CC3)S(=O)(=O)C)C4=C5C=CNC5=CC=C4
Procedure, shortened: as §1

duvelisib = compound: C[C@H](Nc1ncnc2nc[nH]c12)c1cc2cccc(Cl)c2c(=O)n1-c1ccccc1 [duvelisib]
Procedure, shortened: as §1

[4] = compound: Cc1cc(SCc2sc(-c3ccc(C(F)(F)F)cc3)nc2C)ccc1OCC(=O)O
Procedure, shortened: as §1

doramapimod = compound: Cc1ccc(-n2nc(C(C)(C)C)cc2NC(=O)Nc2ccc(OCCN3CCOCC3)c3ccccc23)cc1 [doramapimod]
Procedure, shortened: as §1

zotarolimus = compound: CO[C@H]1C[C@@H]2CC[C@@H](C)[C@@](O)(O2)C(=O)C(=O)N2CCCC[C@H]2C(=O)O[C@H]([C@H](C)C[C@@H]2CC[C@H](n3cnnn3)[C@H](OC)C2)CC(=O)[C@H](C)/C=C(\C)[C@@H](O)[C@@H](OC)C(=O)[C@H](C)C[C@H](C)/C=C/C=C/C=C/1C [zotarolimus]
Procedure, shortened: as §1

gefitinib = compound: COc1cc2ncnc(Nc3ccc(F)c(Cl)c3)c2cc1OCCCN1CCOCC1 [gefitinib]
Procedure, shortened: as §1

pictilisib = compound: CS(=O)(=O)N1CCN(Cc2cc3nc(-c4cccc5[nH]ncc45)nc(N4CCOCC4)c3s2)CC1 [pictilisib]
Procedure, shortened: as §1

[5] = compound: C[C@H](C1=CC=C(C=C1)C(=O)NC2=C3C=CNC3=NC=C2)N
Procedure, shortened: as §1

gandotinib = compound: Cc1cc(Nc2cc(CN3CCOCC3)c3nc(C)c(Cc4ccc(Cl)cc4F)n3n2)n[nH]1 [gandotinib]
Procedure, shortened: as §1

ispinesib = compound: Cc1ccc(C(=O)N(CCCN)[C@@H](c2nc3cc(Cl)ccc3c(=O)n2Cc2ccccc2)C(C)C)cc1 [ispinesib]
Procedure, shortened: as §1

[6] = compound: COc1cc2nc(-c3cc(F)ccc3O)nc(N[C@@H]3CNC[C@H]3C(C)(C)O)c2cc1OC
Procedure, shortened: as §1

lapatinib = compound: CS(=O)(=O)CCNCc1ccc(-c2ccc3ncnc(Nc4ccc(OCc5cccc(F)c5)c(Cl)c4)c3c2)o1 [lapatinib]
Procedure, shortened: as §1

filanesib = compound: CON(C)C(=O)N1N=C(c2cc(F)ccc2F)S[C@@]1(CCCN)c1ccccc1 [filanesib]
Procedure, shortened: as §1

[7] = compound: CS(=O)(=O)c1ccc(-c2cnc(N)c(C(=O)Nc3ccccc3)n2)cc1
Procedure, shortened: as §1

tozasertib = compound: Cc1cc(Nc2cc(N3CCN(C)CC3)nc(Sc3ccc(NC(=O)C4CC4)cc3)n2)n[nH]1 [tozasertib]
Procedure, shortened: as §1

Measured: log2 fold change

NCCRP1 (UniProt Q6ZVX7)
inactive: [1] 0.207 | idasanutlin 0.386 | alisertib 1.27 | [2] 0.043 | crizotinib 0.115 | [3] 0.265 | duvelisib -0.173 | [4] -0.266 | doramapimod -0.173

NEB isoform 3 (UniProt P20929)
inactive: zotarolimus -0.098 | idasanutlin 0.12 | gefitinib 0.039 | pictilisib 0.076 | [3] -0.483 | [5] 0.005 | duvelisib -0.033 | gandotinib -0.04 | [4] -0.103 | ispinesib 0.158

NAP1L1 (UniProt B7Z9C2)
inactive: [1] -0.116 | idasanutlin -0.004 | alisertib 0.258 | gefitinib 0.03 | [2] 0.066 | pictilisib 0.111 | crizotinib -0.015 | gandotinib 0.041 | [4] 0.433 | doramapimod 0.155

NATD1 (UniProt Q8N6N6)
inactive: idasanutlin -0.017 | alisertib 0.037 | [6] 0.178 | gefitinib -0.016 | [2] -0.08 | lapatinib -0.115

NCKAP5L (UniProt Q9HCH0)
inactive: [1] -0.149 | alisertib 0.11 | [6] -0.058 | [2] 0.156 | lapatinib 0.195 | crizotinib 0.005 | duvelisib -0.092 | [4] 0.094 | doramapimod 0.011 | ispinesib 0.02

NDRG2 (UniProt G3V392)
inactive: [1] -0.059 | filanesib -0.082 | alisertib 0.016 | [6] -0.062 | [2] 0.149 | lapatinib -0.265 | [7] -0.043 | crizotinib 0.029 | [3] 0.198 | doramapimod 0.152

NA (UniProt B2RBV5)
inactive: filanesib 0.081 | alisertib -0.043 | [6] 0.001 | gefitinib -0.33 | [2] 0.028 | lapatinib -0.243 | pictilisib 0.061 | [7] -0.027 | [3] 0.064 | gandotinib 0

NAA40 (UniProt Q86UY6)
inactive: [1] -0.235 | zotarolimus 0.123 | pictilisib 0.114 | crizotinib 0.075 | [3] -0.234 | [5] 0.606 | gandotinib 0.092 | tozasertib 0.218 | doramapimod 0.156 | ispinesib -0.167

NCKIPSD (UniProt Q9NZQ3)
inactive: idasanutlin 0.021 | [6] -0.087 | lapatinib 0.122 | pictilisib 0.157 | gandotinib -0.06 | ispinesib -0.111

NDUFA3 (UniProt O95167)
inactive: filanesib 0.017 | zotarolimus -0.07 | idasanutlin 0.061 | alisertib -0.069 | [6] -0.037 | gefitinib 0.05 | [2] 0.091 | lapatinib -0.016 | pictilisib -0.077 | [7] 0.019 | [3] 0.078 | [5] 0.088 | duvelisib 0.153 | gandotinib 0.04 | tozasertib -0.059 | [4] -0.127 | ispinesib -0.076

NCOA1 (UniProt Q15788)
inactive: zotarolimus 0.142 | idasanutlin 0.065 | alisertib 0.047 | gefitinib 0.033 | [2] 0.024 | [3] 0.056 | [5] -0.064 | duvelisib -0.072 | tozasertib -0.025 | ispinesib -0.037

NCBP2AS2 (UniProt Q69YL0)
active: [6] -0.42 | ispinesib -0.48
inactive: filanesib -0.09 | zotarolimus -0.051 | idasanutlin -0.023 | alisertib -0.058 | gefitinib -0.137 | [2] 0.044 | lapatinib -0.093 | pictilisib 0.033 | [7] -0.092 | [5] -0.027 | gandotinib -0.064 | [4] 0.044

NA, A0A1W2PSA9
inactive: zotarolimus -0.275 | idasanutlin 0.049 | pictilisib -0.179 | [5] 0.041 | gandotinib 0.403 | [4] -0.371 | ispinesib -0.059

NDUFA7 (UniProt M0R0N0)
inactive: filanesib -0.042 | [7] 0.095

MYOF (UniProt Q9NZM1)
inactive: idasanutlin -0.201 | duvelisib -0.031 | [4] 0.165

Reprinted at random: two records from the list
NAA40 (UniProt Q86UY6)
inactive: [1] -0.235 | zotarolimus 0.123 | pictilisib 0.114 | crizotinib 0.075 | [3] -0.234 | [5] 0.606 | gandotinib 0.092 | tozasertib 0.218 | doramapimod 0.156 | ispinesib -0.167

NCKIPSD (UniProt Q9NZQ3)
inactive: idasanutlin 0.021 | [6] -0.087 | lapatinib 0.122 | pictilisib 0.157 | gandotinib -0.06 | ispinesib -0.111

Later entries

NDUFC1 (UniProt O43677)
inactive: zotarolimus 0.112 | idasanutlin 0.086 | [3] 0.301 | [5] -0.046

NCAPH2 isoform 4 (UniProt Q6IBW4)
inactive: [1] -0.159 | idasanutlin 0.078 | alisertib -0.151 | gefitinib 0.15 | [2] -0.413 | crizotinib -0.081 | [3] -0.135 | doramapimod -0.147

NCOA4 isoform 4 (UniProt Q13772)
inactive: zotarolimus -0.347 | pictilisib -0.28 | [5] 0.473 | gandotinib 0.246 | ispinesib -0.142
